Measured values from patent publication EP0378285A1, “Substituted alkenes, processes for their preparation and their use as pesticides” (priority 1989, dated 1990).
Some entries share one result that the patent states for a list of compounds. At least one compound was matched to its structure with a doubt left.

System: brown rice-hoppers (Niliparvata lugens Stal)
Experiment: Use Example B: activity in prophylactic treatment of leaves against brown rice-hoppers
Assay type: in vivo
Details: aqueous preparation containing 0.1 % of active material; dipped rice seedlings; hoppers in the 4-5 stage; 2 days at 28° C; percentage mortality, Abbott's method
Excerpt: Activity in prophylactic treatment of leaves against brown rice-hoppers (Niliparvata lugens Stal)
Rice seedlings (Oryzae sativa L.) in the two leaf stage (about 10 per polystyrene pot of size 6.5 x 6.5 cm) were either untreated or […] until dripping wet, with an aqueous preparation containing 0.1 % of active material. After drying the sprayed leaves, a transparent cylinder was placed over each pot and through an opening, about 30 brown rice-hoppers (Niliparvata lugens) in the 4-5 stage, anaesthetised with carbon dioxide, were introduced into each pot. After closing the opening with a fine mesh screen, the pots were kept for 2 days at 28° C and 16 hours/day of light in the glasshouse, the amount of dead hoppers was determined. The percentage mortality was then estimated and the activity calculated using Abbott's method in comparison with the untreated controls.

For `C=C(C(C)C)C(C)(C)COCc1ccc(F)c(Oc2ccccc2)c1` [Example 26], the activity was ≥ 80%.
